Data as given in PubChem BioAssay AID1159584 (Peter MacCallum Cancer Centre, 2016)

- Screen: 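Knock-downs that harm CDH1-null cells more than parental MCF10A cells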 (primary screen)
- Cells: human MCF10A breast epithelial cells, parental and CDH1-null
- Reagents: siRNA against human genes
- Detection: 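ATP luminescence (CellTiter-Glo) viability per line relative to mean mock wells over all plates, and the ratio of CDH1-null to parental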
- Reading the numbers: CDH1-null / parental viability ratio: higher = CDH1-null cells survive relatively better than parental
In all, the deposit lists about 18,000 reagents; shown is a random part of them. Not all columns of the deposit are shown. Not given: the amount of reagent, the time to read-out.

ZFHX4 showed CDH1-null / parental viability ratio 0.85. After knock-down of TRAFD1 the results were CDH1-null / parental viability ratio 0.67. With knock-down of SIDT1, the record shows CDH1-null / parental viability ratio 1.11. Against SEMA3D the deposit lists CDH1-null / parental viability ratio 0.97. OPLAH showed CDH1-null / parental viability ratio 0.92. With knock-down of PIAS4, the record shows CDH1-null / parental viability ratio 1.

Depletion of SVIL came out at: CDH1-null / parental viability ratio 1.11. Against PNO1, the entry reads CDH1-null / parental viability ratio 0.95. After knock-down of HRCT1 the results were CDH1-null / parental viability ratio 1. TNIP3 scored CDH1-null / parental viability ratio 0.9. Depletion of SF3A2 resulted in: CDH1-null / parental viability ratio 1.33. With knock-down of NPL, the screen gave CDH1-null / parental viability ratio 0.99.

Depletion of TPSAB1 resulted in: CDH1-null / parental viability ratio 1.05. For TUBG1 the deposit lists CDH1-null / parental viability ratio 0.77. Depletion of SPATA6 came out at: CDH1-null / parental viability ratio 1.21. Against ZNF592, the entry reads CDH1-null / parental viability ratio 0.99. Depletion of EXD1 came out at: CDH1-null / parental viability ratio 1.04. Against NUDT6, the entry reads CDH1-null / parental viability ratio 1.13.

After knock-down of TXNIP, the record shows CDH1-null / parental viability ratio 0.97. After knock-down of RRP12, the record shows CDH1-null / parental viability ratio 1.03. For CDH5, the entry reads CDH1-null / parental viability ratio 0.66. DCTN5 gave CDH1-null / parental viability ratio 0.64. Against CLDN1, the values are CDH1-null / parental viability ratio 1.04. Silencing of ANO10 gave: CDH1-null / parental viability ratio 1.17.

Sorted by “CDH1-null / parental viability ratio” (lowest first): 2 of the entries above.
TNIP3 → CDH1-null / parental viability ratio = 0.9
HRCT1 → CDH1-null / parental viability ratio = 1
